Measurements as given in the supplement of paper PMC10849652.
The list shows a part of the results.

The chains behind the UniProt entries cited, without tags or fusion partners. Where a name states a change or a piece, a line headed by the entry shows the natural chain unless it says otherwise.
UniProt P30520: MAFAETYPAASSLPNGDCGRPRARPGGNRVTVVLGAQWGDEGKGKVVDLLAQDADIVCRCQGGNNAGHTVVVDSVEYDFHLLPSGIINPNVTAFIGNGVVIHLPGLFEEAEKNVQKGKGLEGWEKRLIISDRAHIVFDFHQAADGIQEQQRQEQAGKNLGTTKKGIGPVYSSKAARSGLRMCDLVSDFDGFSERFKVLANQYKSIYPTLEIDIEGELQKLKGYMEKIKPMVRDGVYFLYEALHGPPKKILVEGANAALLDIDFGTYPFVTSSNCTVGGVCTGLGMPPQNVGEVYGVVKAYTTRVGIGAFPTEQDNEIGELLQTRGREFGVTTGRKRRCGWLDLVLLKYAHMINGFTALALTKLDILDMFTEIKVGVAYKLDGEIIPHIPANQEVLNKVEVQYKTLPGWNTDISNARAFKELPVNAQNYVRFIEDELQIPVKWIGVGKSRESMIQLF
UniProt P05091: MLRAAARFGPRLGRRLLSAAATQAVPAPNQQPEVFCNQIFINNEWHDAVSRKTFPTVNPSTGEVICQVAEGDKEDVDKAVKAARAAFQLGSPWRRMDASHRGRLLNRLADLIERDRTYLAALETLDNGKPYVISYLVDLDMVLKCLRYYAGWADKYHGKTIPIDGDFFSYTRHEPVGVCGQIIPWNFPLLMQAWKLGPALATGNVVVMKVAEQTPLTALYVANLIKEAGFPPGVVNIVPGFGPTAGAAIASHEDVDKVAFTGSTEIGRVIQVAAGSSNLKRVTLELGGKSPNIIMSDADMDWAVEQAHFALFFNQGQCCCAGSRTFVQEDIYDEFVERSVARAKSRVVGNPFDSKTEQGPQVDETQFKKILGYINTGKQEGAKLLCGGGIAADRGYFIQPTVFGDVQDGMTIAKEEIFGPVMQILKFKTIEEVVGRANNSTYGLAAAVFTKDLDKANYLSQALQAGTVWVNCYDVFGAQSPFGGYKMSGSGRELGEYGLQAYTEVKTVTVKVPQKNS
UniProt P35612: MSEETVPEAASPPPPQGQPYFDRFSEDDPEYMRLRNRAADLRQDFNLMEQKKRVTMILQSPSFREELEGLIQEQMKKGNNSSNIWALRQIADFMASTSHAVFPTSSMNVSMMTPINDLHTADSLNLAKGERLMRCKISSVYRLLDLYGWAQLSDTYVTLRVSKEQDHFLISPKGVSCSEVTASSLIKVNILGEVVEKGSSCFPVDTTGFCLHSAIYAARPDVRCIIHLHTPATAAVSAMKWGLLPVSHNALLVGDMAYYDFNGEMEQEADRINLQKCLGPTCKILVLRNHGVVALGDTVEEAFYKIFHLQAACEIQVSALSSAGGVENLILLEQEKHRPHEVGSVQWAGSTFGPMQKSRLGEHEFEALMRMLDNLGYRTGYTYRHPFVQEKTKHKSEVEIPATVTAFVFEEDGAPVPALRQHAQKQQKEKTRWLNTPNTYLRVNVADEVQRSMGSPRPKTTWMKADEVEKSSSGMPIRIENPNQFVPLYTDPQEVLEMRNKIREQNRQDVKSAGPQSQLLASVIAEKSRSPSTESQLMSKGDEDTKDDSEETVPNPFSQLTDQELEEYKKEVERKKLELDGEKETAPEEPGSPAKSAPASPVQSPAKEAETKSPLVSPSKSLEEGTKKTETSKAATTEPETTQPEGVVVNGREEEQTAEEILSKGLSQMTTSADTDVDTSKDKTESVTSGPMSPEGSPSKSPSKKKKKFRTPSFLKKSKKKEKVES
UniProt Q9ULX6: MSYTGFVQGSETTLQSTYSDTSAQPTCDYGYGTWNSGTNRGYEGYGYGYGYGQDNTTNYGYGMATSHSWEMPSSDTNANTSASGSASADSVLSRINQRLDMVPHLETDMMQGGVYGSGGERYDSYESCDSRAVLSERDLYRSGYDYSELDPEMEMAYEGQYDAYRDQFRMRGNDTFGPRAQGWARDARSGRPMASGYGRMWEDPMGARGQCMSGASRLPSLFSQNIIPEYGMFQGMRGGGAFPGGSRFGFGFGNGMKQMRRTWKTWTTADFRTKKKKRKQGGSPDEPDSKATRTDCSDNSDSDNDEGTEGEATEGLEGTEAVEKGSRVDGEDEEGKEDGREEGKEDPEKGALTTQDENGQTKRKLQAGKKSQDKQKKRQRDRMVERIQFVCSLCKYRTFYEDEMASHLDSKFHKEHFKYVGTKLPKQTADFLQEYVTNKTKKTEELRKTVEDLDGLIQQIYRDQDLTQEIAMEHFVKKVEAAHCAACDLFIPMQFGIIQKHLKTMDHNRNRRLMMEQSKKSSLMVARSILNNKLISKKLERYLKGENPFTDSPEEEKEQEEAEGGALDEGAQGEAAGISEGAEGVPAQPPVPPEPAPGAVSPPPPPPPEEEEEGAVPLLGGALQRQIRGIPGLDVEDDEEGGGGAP
UniProt Q9H6U8: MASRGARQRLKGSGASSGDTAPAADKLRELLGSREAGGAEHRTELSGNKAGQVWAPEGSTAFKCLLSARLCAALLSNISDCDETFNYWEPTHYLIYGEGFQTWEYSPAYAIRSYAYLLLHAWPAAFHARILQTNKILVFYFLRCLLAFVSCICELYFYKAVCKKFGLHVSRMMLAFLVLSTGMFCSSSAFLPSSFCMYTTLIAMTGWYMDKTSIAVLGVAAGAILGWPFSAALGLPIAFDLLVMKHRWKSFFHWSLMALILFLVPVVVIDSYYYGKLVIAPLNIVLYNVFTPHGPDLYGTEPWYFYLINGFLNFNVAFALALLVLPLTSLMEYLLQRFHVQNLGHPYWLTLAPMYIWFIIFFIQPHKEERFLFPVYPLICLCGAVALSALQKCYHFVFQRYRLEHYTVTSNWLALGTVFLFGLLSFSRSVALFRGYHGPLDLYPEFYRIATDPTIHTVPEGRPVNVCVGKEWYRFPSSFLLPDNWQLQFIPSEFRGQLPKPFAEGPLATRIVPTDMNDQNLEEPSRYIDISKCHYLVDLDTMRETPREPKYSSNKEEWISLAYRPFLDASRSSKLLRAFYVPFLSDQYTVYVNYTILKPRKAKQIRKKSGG
UniProt Q53H80, whole entry, looked up: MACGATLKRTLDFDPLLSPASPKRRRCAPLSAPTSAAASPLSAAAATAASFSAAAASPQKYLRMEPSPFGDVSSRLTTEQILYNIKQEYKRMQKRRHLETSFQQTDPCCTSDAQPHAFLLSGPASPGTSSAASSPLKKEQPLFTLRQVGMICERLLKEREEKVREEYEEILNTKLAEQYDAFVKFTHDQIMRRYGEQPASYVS
UniProt P35573: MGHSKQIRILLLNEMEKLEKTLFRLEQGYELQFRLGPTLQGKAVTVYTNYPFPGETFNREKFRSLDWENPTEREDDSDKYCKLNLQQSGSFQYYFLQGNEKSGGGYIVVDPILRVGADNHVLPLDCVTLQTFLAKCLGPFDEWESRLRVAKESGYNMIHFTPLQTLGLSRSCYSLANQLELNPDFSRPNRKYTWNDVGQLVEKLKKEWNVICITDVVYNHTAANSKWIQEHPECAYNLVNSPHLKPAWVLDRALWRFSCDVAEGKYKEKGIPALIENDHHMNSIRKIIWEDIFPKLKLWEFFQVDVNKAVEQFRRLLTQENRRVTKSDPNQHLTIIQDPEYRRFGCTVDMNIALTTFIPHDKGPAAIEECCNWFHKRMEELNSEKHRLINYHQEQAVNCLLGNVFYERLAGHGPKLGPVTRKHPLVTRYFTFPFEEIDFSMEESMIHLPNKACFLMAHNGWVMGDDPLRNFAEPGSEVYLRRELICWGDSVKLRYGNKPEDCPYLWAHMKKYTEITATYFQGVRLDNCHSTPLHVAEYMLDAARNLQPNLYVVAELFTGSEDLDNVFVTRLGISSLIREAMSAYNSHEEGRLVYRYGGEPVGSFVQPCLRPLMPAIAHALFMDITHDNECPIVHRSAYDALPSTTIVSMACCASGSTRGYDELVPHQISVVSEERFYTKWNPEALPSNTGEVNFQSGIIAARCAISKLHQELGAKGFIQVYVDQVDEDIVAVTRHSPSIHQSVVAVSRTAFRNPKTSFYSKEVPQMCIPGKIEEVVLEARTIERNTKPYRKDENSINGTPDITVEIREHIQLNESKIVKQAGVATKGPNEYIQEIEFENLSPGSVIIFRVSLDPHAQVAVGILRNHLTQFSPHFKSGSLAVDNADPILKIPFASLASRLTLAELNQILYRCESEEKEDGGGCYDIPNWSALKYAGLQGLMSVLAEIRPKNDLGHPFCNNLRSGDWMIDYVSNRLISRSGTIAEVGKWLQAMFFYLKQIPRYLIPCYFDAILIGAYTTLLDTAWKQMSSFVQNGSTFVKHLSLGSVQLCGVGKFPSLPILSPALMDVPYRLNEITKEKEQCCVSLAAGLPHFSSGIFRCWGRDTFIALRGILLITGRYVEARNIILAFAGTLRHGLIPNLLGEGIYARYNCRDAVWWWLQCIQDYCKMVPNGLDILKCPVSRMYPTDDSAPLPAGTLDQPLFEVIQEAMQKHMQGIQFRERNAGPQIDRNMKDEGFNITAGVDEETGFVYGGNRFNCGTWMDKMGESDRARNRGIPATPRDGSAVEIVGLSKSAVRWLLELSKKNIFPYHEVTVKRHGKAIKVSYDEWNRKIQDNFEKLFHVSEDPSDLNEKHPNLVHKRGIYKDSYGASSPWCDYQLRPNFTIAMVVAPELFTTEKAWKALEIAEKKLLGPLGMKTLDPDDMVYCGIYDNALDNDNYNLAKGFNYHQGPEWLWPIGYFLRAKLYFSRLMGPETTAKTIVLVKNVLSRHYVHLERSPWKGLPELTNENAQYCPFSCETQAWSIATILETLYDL
UniProt P55263: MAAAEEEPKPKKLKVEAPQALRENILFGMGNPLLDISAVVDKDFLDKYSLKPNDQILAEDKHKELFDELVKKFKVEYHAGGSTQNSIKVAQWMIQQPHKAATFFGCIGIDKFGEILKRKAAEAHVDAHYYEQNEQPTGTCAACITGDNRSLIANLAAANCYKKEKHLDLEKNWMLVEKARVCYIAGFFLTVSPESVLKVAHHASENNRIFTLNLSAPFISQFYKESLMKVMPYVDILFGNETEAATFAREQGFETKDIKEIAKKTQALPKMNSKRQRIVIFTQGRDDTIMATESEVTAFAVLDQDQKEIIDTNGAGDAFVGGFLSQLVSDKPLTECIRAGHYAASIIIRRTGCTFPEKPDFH
UniProt Q9Y672: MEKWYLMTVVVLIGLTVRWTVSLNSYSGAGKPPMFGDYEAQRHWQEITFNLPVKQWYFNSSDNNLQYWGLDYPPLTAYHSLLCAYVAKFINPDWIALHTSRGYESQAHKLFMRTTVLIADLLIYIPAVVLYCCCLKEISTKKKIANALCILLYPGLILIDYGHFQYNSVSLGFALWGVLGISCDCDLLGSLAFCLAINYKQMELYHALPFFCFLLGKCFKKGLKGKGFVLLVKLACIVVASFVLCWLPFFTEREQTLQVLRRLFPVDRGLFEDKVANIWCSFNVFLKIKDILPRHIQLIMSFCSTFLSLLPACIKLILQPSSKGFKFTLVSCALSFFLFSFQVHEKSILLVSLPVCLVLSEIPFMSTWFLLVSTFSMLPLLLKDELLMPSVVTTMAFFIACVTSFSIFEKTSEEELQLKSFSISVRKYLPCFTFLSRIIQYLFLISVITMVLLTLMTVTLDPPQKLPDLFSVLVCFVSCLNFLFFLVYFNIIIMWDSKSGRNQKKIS
UniProt Q8N142: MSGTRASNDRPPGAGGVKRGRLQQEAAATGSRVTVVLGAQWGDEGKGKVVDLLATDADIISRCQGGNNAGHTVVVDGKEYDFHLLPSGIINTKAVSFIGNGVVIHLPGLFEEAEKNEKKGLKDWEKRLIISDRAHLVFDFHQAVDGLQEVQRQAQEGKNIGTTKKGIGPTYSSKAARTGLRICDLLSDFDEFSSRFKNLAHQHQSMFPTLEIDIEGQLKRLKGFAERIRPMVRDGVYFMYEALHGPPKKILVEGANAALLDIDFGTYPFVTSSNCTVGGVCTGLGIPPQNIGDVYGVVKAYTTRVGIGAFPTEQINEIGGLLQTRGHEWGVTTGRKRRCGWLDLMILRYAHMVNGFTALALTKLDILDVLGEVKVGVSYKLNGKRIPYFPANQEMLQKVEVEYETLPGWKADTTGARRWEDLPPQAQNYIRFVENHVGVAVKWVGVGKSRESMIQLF
UniProt O43865, whole entry, looked up: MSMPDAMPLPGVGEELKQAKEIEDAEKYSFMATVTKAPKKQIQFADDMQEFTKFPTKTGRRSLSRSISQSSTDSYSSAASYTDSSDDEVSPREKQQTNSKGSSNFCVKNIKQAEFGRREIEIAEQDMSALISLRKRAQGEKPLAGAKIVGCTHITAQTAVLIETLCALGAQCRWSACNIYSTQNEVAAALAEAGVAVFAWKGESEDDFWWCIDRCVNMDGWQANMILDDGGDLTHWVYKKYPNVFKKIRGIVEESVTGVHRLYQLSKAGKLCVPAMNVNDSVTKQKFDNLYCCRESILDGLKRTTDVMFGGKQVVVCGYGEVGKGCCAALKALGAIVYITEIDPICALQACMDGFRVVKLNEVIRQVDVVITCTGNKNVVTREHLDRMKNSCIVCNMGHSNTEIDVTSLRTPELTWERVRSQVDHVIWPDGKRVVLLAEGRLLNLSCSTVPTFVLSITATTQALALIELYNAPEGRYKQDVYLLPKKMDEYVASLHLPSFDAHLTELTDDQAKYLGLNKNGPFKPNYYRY

Compound: O=C(O)c1ccc2c(c1)nc(Nc1cccc(Cl)c1)c1ccncc12 [silmitasertib]
Test: log2 fold change, soluble protein after heating vs DMSO (PISA); higher = thermal stabilisation; K562 cells, 10 uM, 30 min; active = over 0.2 and 3.5 SD of the protein, either way, in both replicates (recomputed)
In short: (§1)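 K562 cells at 2×10^6 cells/mL were treated for 30 min with 10 μM compound, and aliquots were heated for 3 min over 48°C-58°C before pooling. Extraction used PBS with 0.5% NP-40 at 4°C, and soluble protein was the supernatant after 21,000xg for 90 min, measured by TMTpro 16plex LC-MS/MS with channel sums equalised. Thermal stability values, relative to control samples and from duplicates, are log2 fold changes.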

log2 fold change, inactive:
ADSS2 (UniProt P30520) -0.05, ADPRHL2 (UniProt Q9NX46) -0.045, ALDH2 (UniProt P05091) -0.038, AKR7A2 (UniProt O43488) -0.078, ADD2 (UniProt P35612) -0.054, AKR1B1 (UniProt P15121) -0.017, AKAP8L (UniProt Q9ULX6) -0.012, ANAPC1 (UniProt Q9H1A4) 0.042, AK3 (UniProt Q9UIJ7) 0.017, ALDH1B1 (UniProt P30837) -0.037, AKT1S1 isoform 3 (UniProt Q96B36) -0.048, AFDN isoform 5 (UniProt P55196) -0.012, AGPAT1 (UniProt Q99943) -0.007, ALKBH6 isoform 2 (UniProt Q3KRA9) 0.02, ALDH6A1 (UniProt Q02252) 0.048, ALKBH2 (UniProt Q6NS38) -0.005, ALG9 isoform 3 (UniProt Q9H6U8) 0.013, AIP (UniProt O00170) 0.038, ALDH1L2 (UniProt Q3SY69) 0.018, AGPS (UniProt O00116) 0.011, AKIRIN2 (UniProt Q53H80) 0.026, AGL (UniProt P35573) 0.04, ADD3 (UniProt Q9UEY8) 0.001, ALG5 (UniProt Q9Y673) 0.075, ADK (UniProt P55263) 0.011, AKAP8 (UniProt O43823) -0.13, AHCY (UniProt P23526) -0.059, AIFM1 (UniProt O95831) -0.02, ALG6 (UniProt Q9Y672) 0.021, ALDOA isoform 2 (UniProt P04075) -0.041, AHCYL2 (UniProt Q96HN2) 0.035, ADSS1 (UniProt Q8N142) -0.028, AHCYL1 (UniProt O43865) 0.188

Compound: O=C1NC(=O)C(c2cnc3ccccn23)=C1c1cn2c3c(cc(F)cc13)CN(C(=O)N1CCCCC1)CC2
Test: as above
In short: as §1

log2 fold change, inactive:
ADSS2 (UniProt P30520) -0.083, ADPRHL2 (UniProt Q9NX46) -0.028, ALDH2 (UniProt P05091) -0.001, AKR7A2 (UniProt O43488) -0.065, ADD2 (UniProt P35612) -0.092, AKR1B1 (UniProt P15121) -0.062, AKAP8L (UniProt Q9ULX6) -0.236, ANAPC1 (UniProt Q9H1A4) 0.03, AK3 (UniProt Q9UIJ7) -0.038, ALDH1B1 (UniProt P30837) -0.015, AKT1S1 isoform 3 (UniProt Q96B36) 0.038, AFDN isoform 5 (UniProt P55196) -0.052, AGPAT1 (UniProt Q99943) -0.067, ALKBH6 isoform 2 (UniProt Q3KRA9) -0.057, ALDH6A1 (UniProt Q02252) -0.072, ALKBH2 (UniProt Q6NS38) 0.106, ALG9 isoform 3 (UniProt Q9H6U8) -0.129, AIP (UniProt O00170) 0.031, ALDH1L2 (UniProt Q3SY69) -0.031, AGPS (UniProt O00116) -0.107, AKIRIN2 (UniProt Q53H80) 0.375, AGL (UniProt P35573) 0.034, ADD3 (UniProt Q9UEY8) -0.037, ALG5 (UniProt Q9Y673) -0.106, ADK (UniProt P55263) 0.232, AKAP8 (UniProt O43823) -0.1, AHCY (UniProt P23526) -0.007, AIFM1 (UniProt O95831) 0.011, ALG6 (UniProt Q9Y672) -0.011, ALDOA isoform 2 (UniProt P04075) -0.024, AHCYL2 (UniProt Q96HN2) -0.036, ADSS1 (UniProt Q8N142) -0.07, AHCYL1 (UniProt O43865) -0.002

Compound: c1cc(OCCN2CCCCC2)cc(-c2n[nH]c3ccc(-c4nnc[nH]4)cc23)c1
Test: as above
In short: as §1

log2 fold change, inactive:
ADSS2 (UniProt P30520) 0.011, ADPRHL2 (UniProt Q9NX46) 0.055, ALDH2 (UniProt P05091) -0.023, AKR7A2 (UniProt O43488) 0.011, ADD2 (UniProt P35612) 0.013, AKR1B1 (UniProt P15121) -0.028, AKAP8L (UniProt Q9ULX6) -0.067, ANAPC1 (UniProt Q9H1A4) -0.053, AK3 (UniProt Q9UIJ7) -0.015, ALDH1B1 (UniProt P30837) 0.058, AKT1S1 isoform 3 (UniProt Q96B36) -0.014, AFDN isoform 5 (UniProt P55196) -0.068, AGPAT1 (UniProt Q99943) -0.002, ALKBH6 isoform 2 (UniProt Q3KRA9) 0.028, ALDH6A1 (UniProt Q02252) -0.043, ALKBH2 (UniProt Q6NS38) -0.029, ALG9 isoform 3 (UniProt Q9H6U8) 0.136, AIP (UniProt O00170) 0.036, ALDH1L2 (UniProt Q3SY69) -0.105, AGPS (UniProt O00116) -0.011, AKIRIN2 (UniProt Q53H80) 0.019, AGL (UniProt P35573) -0.144, ADD3 (UniProt Q9UEY8) -0.024, ALG5 (UniProt Q9Y673) 0.08, ADK (UniProt P55263) 0.158, AKAP8 (UniProt O43823) -0.043, AHCY (UniProt P23526) -0.01, AIFM1 (UniProt O95831) -0.008, ALG6 (UniProt Q9Y672) -0.047, ALDOA isoform 2 (UniProt P04075) 0.013, AHCYL2 (UniProt Q96HN2) 0.111, ADSS1 (UniProt Q8N142) -0.063, AHCYL1 (UniProt O43865) 0.253
